Experimental data reported in publication PMC11384121.
For at least one entry, the source does not settle the construct or the ends of the probe. Negatives hold for the conditions tested.

Chains of the proteins cited; added tags and fusions are not shown.
UniProt A0ABM1G300, entry or part of it: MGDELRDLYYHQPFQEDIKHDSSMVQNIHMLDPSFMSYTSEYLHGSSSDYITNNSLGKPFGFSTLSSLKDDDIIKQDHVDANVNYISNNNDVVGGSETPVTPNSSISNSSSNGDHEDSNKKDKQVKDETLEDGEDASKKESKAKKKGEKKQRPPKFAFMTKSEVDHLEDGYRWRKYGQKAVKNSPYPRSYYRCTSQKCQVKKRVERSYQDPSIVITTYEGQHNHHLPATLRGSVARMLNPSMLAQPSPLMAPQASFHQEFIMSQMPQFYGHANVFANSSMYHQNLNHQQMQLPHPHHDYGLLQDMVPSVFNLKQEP
UniProt P08515, whole entry: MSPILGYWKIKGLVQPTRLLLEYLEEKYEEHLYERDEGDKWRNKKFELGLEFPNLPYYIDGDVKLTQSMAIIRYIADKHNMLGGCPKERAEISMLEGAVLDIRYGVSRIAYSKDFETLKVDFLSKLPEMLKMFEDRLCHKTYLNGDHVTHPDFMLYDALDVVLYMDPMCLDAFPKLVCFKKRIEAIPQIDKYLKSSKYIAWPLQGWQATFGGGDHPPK

Assays:
[1] = biological target: WRKY-B-GST (Solanum lycopersicum) (UniProt A0ABM1G300); assay: EMSA; conditions: Beyotime Chemiluminescent EMSA Kit, manufacturer's instructions, pH and temperature not stated, recombinant protein, protein details: GST (pGEX4T), label: biotin
[2] = biological target: GST (UniProt P08515); assay: EMSA; conditions: GST alone; Beyotime Chemiluminescent EMSA Kit, manufacturer's instructions; pH and temperature not stated; recombinant protein; label: biotin

Row | Sequence | binding result [1] | binding result [2] | binding result ([1]; inhibited by competitor probe)
1 | AAGTAAGTTAAAAATAGGTCTGTCCTTTTGACTTTGTAATTATAAATATA (double strand) [Probe-BL] | binds |  | 
2 | AAGTAAGTTAAAAATAGGTCTGTCCAAAACTGAAAGTAATTATAAATATA (double strand) [mProbe-BL] | no binding |  | 
3 | GTTCTGACCGAAAGTTAAAATGAAAAGTCTAAATTACTATTTATAATATC (double strand) [Probe-PIN4] |  | no binding | binds
